Counter-ions that a name gives are not always drawn. Some of the results follow. This data set is noisy: repeats of one test often differ as much as different tests do.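 The human kidney-derived cells carry a stably integrated construct of eight TEAD-binding elements driving luciferase, read by luminescence in a drug-repurposing library screen. A compound counts as a hit when its signal is more than five robust Z scores above the plate mean.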
System: HEK293A TEAD-LUC reporter
Assay: TEAD-luciferase reporter activity (YAP activation), robust Z score vs plate; higher = stronger YAP/TEAD activation
Settings: 24 h

| Structure (SMILES) | TEAD-luciferase reporter activity (compound concentration: 200 nM) | TEAD-luciferase reporter activity (compound concentration: 2 uM) | TEAD-luciferase reporter activity (compound concentration: 10 uM) |
| --- | --- | --- | --- |
| O=C(O)c1ccccc1NCCc1ccccc1 [enfenamic acid] | inactive: -0.807 | inactive: -0.653 | active: 5.95 |
| O=C1c2ccccc2CN1C1CCN(CC2CCCCC2)CC1 | inactive: 1.29 | – | inactive: 2.45 |
| O=C(C1CCCC1)N1CCC(C(=O)N2CCC(N3Cc4ccccc4C3=O)CC2)CC1 | inactive: 1.76 | – | inactive: -0.00762 |
| CC(=O)NC[C@H]1CN(c2ccc(N3CCN(C(=O)COC(=O)CN(C)C)CC3)c(F)c2)C(=O)O1 | inactive: -0.608 | inactive: -0.0522 | inactive: -0.233 |
| CCOC(=O)C1CCN(c2nc(N(C)S(=O)(=O)c3ccc4ccccc4c3)ccc2[N+](=O)[O-])CC1 | inactive: -0.453 | inactive: 2.31 | inactive: -0.307 |
| CCCCNC(=O)C(N)CCC (configuration not stated) | inactive: 0.211 | inactive: 1.21 | inactive: 0.763 |
| CC(=O)N1CCCC2(Cc3ccccc3CN2C(=O)c2ccccc2)C1 (configuration not stated) | inactive: -0.276 | – | inactive: 2.24 |
| O=C(O)c1ccccc1S [Thiosalicylic acid] | inactive: -0.931 | inactive: 0.262 | inactive: 4.86 |
| O=c1[nH]c2ccccc2c(=O)n1CCCN1CCN(c2ccccc2)CC1 [Pelanserin hydrochloride] | inactive: -1.52 | inactive: -1.58 | inactive: -0.253 |
| CCN(CC)CCOC(=O)c1ccc(N)cc1 | inactive: 2.01 | inactive: -0.567 | inactive: -0.291 |
| COC(=O)C1=C(C)NC(C)=C(C(=O)OCCCCNC[C@H](O)COc2ccccc2)C1c1cccc([N+](=O)[O-])c1 (some centres not stated) | inactive: -0.575 | inactive: -2.12 | inactive: -0.898 |
| C=CCc1ccccc1OCC(O)CNC(C)C (configuration not stated) [Alprenolol HCl] | inactive: 0.259 | – | inactive: -1.08 |
| C=CCc1ccccc1OCC(O)CNC(C)C (configuration not stated) [Alprenolol hydrochloride] | – | inactive: -0.23 | – |
| [O-][n+]1cccc(C[C@@H](c2ccc(OC(F)F)c(OC3CC3)c2)c2cnc(C(O)(C(F)(F)F)C(F)(F)F)s2)c1 | inactive: 1.56 | inactive: -1.24 | inactive: -1.57 |
| O=C(C(=O)N1CCN(Cc2ccccc2)CC1)c1c[nH]c2ccccc12 | inactive: -1.42 | inactive: -0.631 | inactive: 2.7 |
| CCC[C@@H](NC(=O)N1C(=O)C(CC)(CC)[C@@H]1Oc1ccc(C(=O)N2CCN(C)CC2)cc1)c1ccc2c(c1)OCO2 | inactive: -2.72 | inactive: -0.693 | inactive: 0.276 |

Reprinted from the results shown for reference:

| Structure (SMILES) | TEAD-luciferase reporter activity (compound concentration: 200 nM) | TEAD-luciferase reporter activity (compound concentration: 2 uM) | TEAD-luciferase reporter activity (compound concentration: 10 uM) |
| --- | --- | --- | --- |
| C=CCc1ccccc1OCC(O)CNC(C)C (configuration not stated) [Alprenolol HCl] | inactive: 0.259 | – | inactive: -1.08 |
| C=CCc1ccccc1OCC(O)CNC(C)C (configuration not stated) [Alprenolol hydrochloride] | – | inactive: -0.23 | – |

Reference: the supplement of paper PMC10735217
